Data as given in PubChem BioAssay AID686937 (Drosophila RNAi Screening Center, 2013)
In all, the deposit lists about 23,000 reagents; this is an unselected part of those with a known target gene and a result. 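Reduced-secretion tags in replicate 1 do not always agree with the z-scores; no criterion for assigning the tags was given.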 Not all columns of the deposit are shown. Not given: the amount of reagent.

- Assay: 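Knock-downs that reduce output of a secreted reporter enzyme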 (primary screen)
- Cell system: Drosophila S2 cells expressing secreted horseradish peroxidase
- Reagents: long dsRNA against Drosophila genes
- Duration: about 5.5 days (5 days dsRNA, then 12 h reporter induction)
- Treatment: reporter expression induced after 5 days of dsRNA, read 12 h later; inducer not stated
- Detection: 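Chemiluminescent measurement of peroxidase in the medium 12 h after reporter induction, following 5 days of dsRNA, given as a z-score per plate; higher means more secretion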
- Direction: z-score: higher = more reporter secreted into medium

{"target gene": "Asator", "DRSC id": "DRSC17136", "z-score, replicate 1": 0.47}
{"target gene": "Osi23", "DRSC id": "DRSC15074", "z-score, replicate 1": 0.2}
{"target gene": "CG15262", "DRSC id": "DRSC01975", "z-score, replicate 1": 0.35}
{"target gene": "CG31705", "DRSC id": "DRSC01991", "z-score, replicate 1": -2.57}
{"target gene": "CG10931", "DRSC id": "DRSC06015", "z-score, replicate 1": 0.36}
{"target gene": "Pc", "DRSC id": "DRSC11873", "z-score, replicate 1": 0.56}
{"target gene": "Hmgcl", "DRSC id": "DRSC02051", "z-score, replicate 1": 0.21}
{"target gene": "CG5181", "DRSC id": "DRSC02825", "z-score, replicate 1": 0.42}
{"target gene": "S-Lap4", "DRSC id": "DRSC10957", "z-score, replicate 1": 0.62}
{"target gene": "CG9997", "DRSC id": "DRSC16591", "z-score, replicate 1": 0.24}
{"target gene": "tbrd-1", "DRSC id": "DRSC14601", "z-score, replicate 1": 0.19}
{"target gene": "Vps35", "DRSC id": "DRSC04519", "z-score, replicate 1": 0.34}
{"target gene": "CG42717", "DRSC id": "DRSC09411", "z-score, replicate 1": 0.17}
{"target gene": "CG32262", "DRSC id": "DRSC08165", "z-score, replicate 1": 0.41}
{"target gene": "mael", "DRSC id": "DRSC11894", "z-score, replicate 1": 0.12}
{"target gene": "Spn85F", "DRSC id": "DRSC14545", "z-score, replicate 1": -1.05}
{"target gene": "AhcyL1", "DRSC id": "DRSC08647", "z-score, replicate 1": 0.02}
{"target gene": "CG6153", "DRSC id": "DRSC02935", "z-score, replicate 1": 0.54}
{"target gene": "CG7772", "DRSC id": "DRSC20056", "z-score, replicate 1": 0.25}
{"target gene": "CG7017", "DRSC id": "DRSC10762", "z-score, replicate 1": -1.83}
{"target gene": "sowah", "DRSC id": "DRSC09186", "z-score, replicate 1": -0.07}
{"target gene": "sowah", "DRSC id": "DRSC09758", "z-score, replicate 1": 0.29}
{"target gene": "CG12056", "DRSC id": "DRSC17796", "z-score, replicate 1": 0.52}
{"target gene": "wash", "DRSC id": "DRSC06302", "z-score, replicate 1": 0.34}
{"target gene": "CG14480", "DRSC id": "DRSC06452", "z-score, replicate 1": 0.31}
{"target gene": "CG11474", "DRSC id": "DRSC04112", "z-score, replicate 1": 0.36}
{"target gene": "CG13786", "DRSC id": "DRSC02289", "z-score, replicate 1": -0.1}
{"target gene": "Coprox", "DRSC id": "DRSC01996", "z-score, replicate 1": 0.4}
{"target gene": "CG7016", "DRSC id": "DRSC16174", "z-score, replicate 1": 0.41}
{"target gene": "CG14237", "DRSC id": "DRSC14731", "z-score, replicate 1": 0.58}
{"target gene": "Art1", "DRSC id": "DRSC16063", "z-score, replicate 1": 0.42}
{"target gene": "Flad1", "DRSC id": "DRSC19898", "z-score, replicate 1": 0.22}
{"target gene": "ebi", "DRSC id": "DRSC00816", "z-score, replicate 1": -0.28}
{"target gene": "CG4928", "DRSC id": "DRSC19342", "z-score, replicate 1": 0.28}
{"target gene": "CG15097", "DRSC id": "DRSC06526", "z-score, replicate 1": -3.45}
{"target gene": "CG33459", "DRSC id": "DRSC05615", "z-score, replicate 1": 0.17}
{"target gene": "CG5556", "DRSC id": "DRSC00687", "z-score, replicate 1": 0.14}
{"target gene": "trsn", "DRSC id": "DRSC06078", "z-score, replicate 1": 0.53}
{"target gene": "CG9003", "DRSC id": "DRSC07317", "z-score, replicate 1": 0.55}
{"target gene": "Cpr47Ea", "DRSC id": "DRSC07333", "z-score, replicate 1": 0.36}

Single entries from the entries so far.
Under “z-score, replicate 1”, CG9003 [DRSC07317] has 0.55
For “z-score, replicate 1”, Spn85F [DRSC14545] has -1.05
